From patent publication US20190010493A1 (published 2019)

Target: HA-tagged full-length RSK2
Experiment: co-immunoprecipitation in heterologous cells

B1: mAKAP RSK binding domain (RBD), mAKAP residues 1694 to 1833 (other, not shown: small tags and cut ends)
chain: ELSLCSEDIVLHKNKIPESNASFRKRLNRSVADESDVNVSMIVNVSCTSACTDDEDDSDLLSSSTLTLTEEELCLKDEDDDSSIATDDEIYEESNLMSGLDYIKNELQTWIRPKLSLTREKKRSGVTDEIKVNKDGGGNE
notes: also called mAKAP RBD
In the case of B1, the binding is reported as “no binding”.

No constants are given. Whether binding was seen depends on the method and setting. In cells and extracts the contact can be indirect.
